In paper doi:10.1101/2025.09.09.675133:

Assays:
V5-SYS1 (human) = biological target: T1, V5-SYS1 (human) (UniProt Q8N2H4); assay: affinity purification with mass spectrometry
T1 sequence: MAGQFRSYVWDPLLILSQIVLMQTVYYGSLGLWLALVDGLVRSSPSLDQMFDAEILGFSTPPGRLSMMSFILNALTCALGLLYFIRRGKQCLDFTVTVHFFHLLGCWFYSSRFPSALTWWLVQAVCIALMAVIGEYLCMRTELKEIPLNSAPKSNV

V5-JTB (human) = biological target: T2, V5-JTB (human) (UniProt O76095); assay: affinity purification with mass spectrometry
T2 sequence: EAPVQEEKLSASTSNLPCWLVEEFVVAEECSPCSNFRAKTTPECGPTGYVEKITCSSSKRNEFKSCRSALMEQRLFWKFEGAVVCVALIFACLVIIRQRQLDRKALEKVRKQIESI

| Binder | binding (V5-SYS1 (human)) | binding (V5-JTB (human)) |
| --- | --- | --- |
| JTB (protein, UniProt O76095 31-146) EAPVQEEKLSASTSNLPCWLVEEFVVAEECSPCSNFRAKTTPECGPTGYVEKITCSSSKRNEFKSCRSALMEQRLFWKFEGAVVCVALIFACLVIIRQRQLDRKALEKVRKQIESI | binds |  |
| ARFRP1 (protein, UniProt Q13795 1-201) MYTLLSGLYKYMFQKDEYCILILGLDNAGKTTFLEQSKTRFNKNYKGMSLSKITTTVGLNIGTVDVGKARLMFWDLGGQEELQSLWDKYYAECHGVIYVIDSTDEERLAESKQAFEKVVTSEALCGVPVLVLANKQDVETCLSIPDIKTAFSDCTSKIGRRDCLTQACSALTGKGVREGIEWMVKCVVRNVHRPPRQRDIT |  | binds |
| ARL1 (protein, UniProt P40616 1-181) MGGFFSSIFSSLFGTREMRILILGLDGAGKTTILYRLQVGEVVTTIPTIGFNVETVTYKNLKFQVWDLGGQTSIRPYWRCYYSNTDAVIYVVDSCDRDRIGISKSELVAMLEEEELRKAILVVFANKQDMEQAMTSSEMANSLGLPALKDRKWQIFKTSATKGTGLDEAMEWLVETLKSRQ | no binding | no binding |

Results are given in words; binding and its absence hold for the method and conditions named. In cells and extracts the contact can be indirect. A yes stands for co-enrichment or nearness to the bait. Other partners may have been found. A no says only that the protein was not detected with the bait. Tags and fused reporters may be left off the sequences shown.
